Measured values reported in patent US20250375445A1, “METHODS OF TREATING A RAS PROTEIN-RELATED DISEASE OR DISORDER” (Revolution Medicines, Inc., priority 2024, published 2025).
Some of these results come from one statement about several compounds together.

Test system: human DUSP6 in NCI-H441 xenograft tumor
Experiment: NCI-H441 xenograft single dose PKPD (exposure, human DUSP6)
Assay type: in vivo, mouse
Conditions: single oral dose, NCI-H441 xenograft tumor (FIG. 2)
Protocol: All mouse studies and procedures related to animal handling, care and treatment complied with all applicable regulations and guidelines of Institutional Animal Care and Use Committee (IACUC) approvals. Female BALB/c nude mice, 6-8 weeks old were used. Animal vendor was Shanghai Sino-British Sippr/BK Laboratory Animal Co., LTD. NCI-H441 tumor cells (ATCC-HTB-174) was maintained in vitro in RPMI-1640 medium supplemented with 10% heat inactivated FBS, 100 μg/mL streptomycin. Each mouse was inoculated subcutaneously at the right flank with 2×10^6 tumor cells in 0.2 ml media/matrigel for tumor development. Efficacy treatment started when the average tumor size reached 150-200 mm^3 in size, and the single dosed PKPD treatment started when tumor size reached 300-600 mm^3. Mice in the study were weighted and tumors were measured twice weekly.

Structure (SMILES): CCn1c(-c2cc(N3CCN(C4CC4)CC3)cnc2[C@H](C)OC)c2c3cc(ccc31)-c1csc(n1)C[C@H](CC(=O)[C@H]1[C@@H]3COC[C@@H]31)C(=O)N1CCC[C@H](N1)C(=O)OCC(C)(C)C2 (atropisomer, axis not shown) [RMC-7977]
- duration of DUSP6 suppression: up to 72 hr
